Among the data in patent US20240082277A1, “MODIFIED ANTIHISTAMINE COMPOSITION AND ANTIVIRAL TREATMENT” (priority 2022, published 2024) are viability values, retold here.

Where a name gives a salt, the structure may show the parent alone.

Assay [1] relates to SARS-CoV-2 Delta (B.1.617.2). The experiment in a line: microbe, parasite or virus in culture. As to conditions: Severe acute respiratory syndrome coronavirus 2, VeroE6/TMPRSS2, read-out: % cell viability.
Assay [2] relates to SARS-CoV-2 Omicron (B.1.1.529). Kind of assay: microbe, parasite or virus in culture. As to conditions: Severe acute respiratory syndrome coronavirus 2, VeroE6/TMPRSS2, read-out: % cell viability.

In the case of `CN(C)CCOC(c1ccccc1)c1ccccc1` [Diphenhydramine hydrochloride], in assay [1], the viability (usually a read-out of living cells in per cent, often relative to untreated cells) at 31.691 µg/mL was found to be 111% and the viability at 100.144 µg/mL is 114%. Moreover, in assay [2], the viability at 100.144 µg/mL is 20.6% and the viability at 316.456 µg/mL came to 35.1%.
